Data published in US20060252930A1 (priority 2003, published 2006).
Values after ≈ are worked out from the molar mass of the structure shown.

What was measured:
Type in all cases: cell-based
Settings in all cases: for Ratio (enhancing activity): set as 1.0
[1] = test system: Candida albicans ATCC 64548; assay: Enhancing activity of azole antifungal agent, yeast susceptibility test NCCLS M27-A
Experimental: (§1) Candida albicans ATCC 64548, fluconazole resistant Candida albicans ATCC 64550 and Aspergillus niger ATCC 6275 were used as test organisms.
(§2) Enhancing activity of azole antifungal agent on Candida albicans ATCC 64548 and ATCC 64550 was determined by yeast susceptibility test method, National Committee for Clinical Standard (NCCLS) Standard Method M27-A. Each suspension of inoculating strain was spread over YM agar medium (0.5% yeast extract, 0.5% malt extract, 0.5% peptone, 1% glucose and 1.5% agar) and cultured at 35° C. for 36 hours. Five grown colonies with a diameter 1 mm or more were collected and the colonies were suspended in physiological saline 5 ml. The suspension was further diluted with physiological saline to prepare the test microorganism suspension having McFarland transmittance 0.5. RPMI 1640 medium 70 μl was added into 96 well plastic plate (Corning Inc., U.S.). […] Finally, the test microorganism suspension 100 μl was added and incubated at 35° C. for 24 hours. […] When IC50 value without addition of FKI-1366 substance A, FKI-1366 substance B or FKI-1366 substance C was set as 1.0, a ratio of IC50 with addition of FKI-1366 substance A, FKI-1366 substance B or FKI-1366 substance C was determined as the enhancing activity.

[2] = test system: fluconazole resistant Candida albicans ATCC 64550; assay: microbe, parasite or virus in culture
Experimental: as §1, §2

[3] = test system: Aspergillus niger ATCC 6275; assay: Enhancing activity of azole antifungal agent, susceptibility test for conidiogenous fungi NCCLS M38-P (Alamar Blue)
Experimental: as §1
Enhancing activity of azole antifungal agent on Aspergillus niger ATCC 6275 was determined by the drug susceptibility test method for conidiogenous fungi proposed by NCCLS (M38-P). Spores of the strain of Aspergillus niger ATCC 6275 were suspended in the physiological saline to maintain a value at OD 530 nm being 0.09-0.11. The suspension was further diluted 100 times with PRMI1640 medium to prepare inoculating microorganism solution. […] Further, FKI-1366 substance A, FKI-1366 substance B or FKI-1366 substance C, 10 μl, each of which was prepared for maintaining the final concentration of 2.5, 5.0 and 10 μg/ml, was added. Finally, the test microorganism suspension 80 μl was added. Alamar Blue solution (Asahi Glass Co., Japan) 20 μl, a coloring reagent, was added thereto and incubated at 35° C. for 24 hours. […] When IC50 value without addition of FKI-1366 substance A, FKI-1366 substance B or FKI-1366 substance C was set as 1.0, a ratio of IC50 with addition of FKI-1366 substance A, FKI-1366 substance B or FKI-1366 substance C was determined as the enhancing activity.

[4] = Table 1, miconazole alone (control)
[5] = Table 2 (fluconazole), control, azole alone

Compound: Clc1ccc(COC(Cn2ccnc2)c2ccc(Cl)cc2Cl)c(Cl)c1 (stereo not drawn) [miconazole, reference compound]
- IC50 ([1]; Candida albicans, ATCC64548, Table 1, miconazole alone (control), 35° C., 24 hours): 11 µg/mL
- Ratio (enhancing activity) [1, 4]: 1.0
- Ratio (enhancing activity) [1, 5]: 1.0
- IC50 ([2]; Candida albicans, ATCC64550, Table 1, miconazole alone (control), 35° C., 24 hours, read-out: IC50 of azole antifungal agent): 0.6 µg/mL (≈ 1.44 µM)
- Ratio (enhancing activity) [2, 4]: 1.0
- Ratio (enhancing activity) [2, 5]: 1.0
- IC50 ([3]; Aspergillus niger, ATCC6275, Table 1, miconazole alone (control), 35° C., 24 hours): 12.5 µg/mL
- Ratio (enhancing activity) [3, 4]: 1.0
- Ratio (enhancing activity) [3, 5]: 1.0
